Experimental data as given in PubChem BioAssay AID1259354 (Paczesny and Yang Labs, IUPUI and University of Michigan, 2018).
Where “and” joins values, the source holds several entries; their conditions need not be identical. Identical values can stand only once. Hit rate of the full screen: of about 78,000 compounds, about 1,800 (2.3%) were called active. The inconclusive results got no clear call from the source; some entries with a clear call stand among them for comparison. Rule as the data show it: active = inhibition above about 30%; inconclusive = mostly about 10% to 28%; inactive = weaker than that.

Chains of the proteins cited; added tags and fusions are not shown. Lines headed by an entry give the natural chain unless they say otherwise; changes in a name come on top.
UniProt Q01638: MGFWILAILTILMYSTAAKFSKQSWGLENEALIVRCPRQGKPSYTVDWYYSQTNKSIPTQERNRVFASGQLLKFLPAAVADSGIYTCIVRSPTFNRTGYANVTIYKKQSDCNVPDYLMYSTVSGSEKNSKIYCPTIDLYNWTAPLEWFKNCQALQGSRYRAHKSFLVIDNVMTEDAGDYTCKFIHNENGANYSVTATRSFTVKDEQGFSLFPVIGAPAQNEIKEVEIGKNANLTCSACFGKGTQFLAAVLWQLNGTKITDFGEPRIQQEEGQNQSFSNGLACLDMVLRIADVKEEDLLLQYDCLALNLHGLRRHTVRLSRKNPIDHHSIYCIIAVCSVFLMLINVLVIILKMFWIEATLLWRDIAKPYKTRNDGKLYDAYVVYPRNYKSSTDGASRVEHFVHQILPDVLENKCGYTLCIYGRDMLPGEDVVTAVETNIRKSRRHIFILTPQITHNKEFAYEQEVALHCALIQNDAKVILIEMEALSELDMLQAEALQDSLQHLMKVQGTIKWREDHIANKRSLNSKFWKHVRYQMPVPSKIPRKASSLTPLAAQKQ

Target: Interleukin-1 receptor-like 1 (Homo sapiens) (UniProt Q01638)
Assay: blocks human ST2 binding to IL-33, primary screen, biochemical, AlphaLISA (AID 1259354)
Conditions: AlphaLISA ST2-Fc/biotin-IL-33 interaction, 1 h; at 17 µM, active compounds read high

Which inhibition does the source give for `COc1ccccc1-c1ccnc(N[C@H]2CO[C@H]3[C@@H]2OC[C@@H]3NS(=O)(=O)c2ccc(NC(C)=O)cc2)n1` here?
Its inhibition is inconclusive: 11%.

For `COc1cc(OC)c(OC)cc1/C=C1\SC(N2CCOCC2)=NC1=O`, which inhibition is on record?
The inhibition was inconclusive: 18%.

`N#Cc1ccccc1S(=O)(=O)N[C@H]1CO[C@H]2[C@@H]1OC[C@H]2OC(=O)Nc1cccc(C(F)(F)F)c1` was tested. Which inhibition did it give?
Its inhibition is inconclusive: 10%.

Which inhibition does the source give for `O=C(CNS(=O)(=O)c1cccs1)NCc1ccc2c(c1)OCO2` here?
The inhibition was “inactive”.

`COc1ccc(Cl)cc1N1C(=O)CSC1c1ccc([N+](=O)[O-])cc1` (stereo not drawn) was tested. Which inhibition did it give?
Its inhibition is inconclusive: 22%.

With `CC1CC(=O)[C@]2(O)C(C(=O)OCCc3ccc(O)c(O)c3)=CO[C@@H](O[C@@H]3O[C@H](CO)[C@@H](O)[C@H](O)[C@H]3O)[C@H]12` (stereo partly drawn) as the compound, how does the inhibition read?
Its inhibition is inconclusive: 10%.

With `COc1ccc(-c2nnsc2-c2nc3ccccc3[nH]2)cc1` as the compound, how does the inhibition read?
Its inhibition is “inactive”.

For `CC(C)c1ccc(-c2nc(N3CCCCCC3)nc3n[nH]c(N)c23)cc1`, which inhibition is on record?
The inhibition was inconclusive: 12%.

How did the inhibition turn out when `CCN(CC1CCN(CCc2ccccc2C)CC1)C(=O)Cc1ccccn1` was run?
Its inhibition is inconclusive: 14%.

For `CN1CCC(N(C)Cc2ccccc2[N+](=O)[O-])CC1`, which inhibition is on record?
Its inhibition is “inactive”.

For `O=C1NC(=Nc2ccccc2)SC1Cc1cccc(Cl)c1` (stereo not drawn), which inhibition is on record?
The inhibition was inconclusive: 21% and inconclusive: 11%.

For `Cc1ccc(C(=O)Nc2ccc([N+](=O)[O-])cc2)cc1Br`, which inhibition is on record?
The inhibition was inconclusive: 11%.

With `O=C(Nc1ccc2nn(-c3ccc(Cl)cc3)nc2c1)c1cccc(F)c1` as the compound, how does the inhibition read?
The inhibition was “inactive”.

With `CC(C)CNC(=O)c1ccc(NC(=O)Cc2ccc(Cl)cc2)cc1` as the compound, how does the inhibition read?
The inhibition was “inactive”.

`O=C1NC(=O)/C(=C\c2ccc(-c3ccc(Cl)c([N+](=O)[O-])c3)o2)S1` was tested. Which inhibition did it give?
Its inhibition is active: 69%.

With `Cc1ccc(C(=O)Nc2ccc([N+](=O)[O-])cc2)cc1Cl` as the compound, how does the inhibition read?
Its inhibition is inconclusive: 17%.

How did the inhibition turn out when `COc1ccc(Br)cc1C(=O)Nc1cc(-c2nc3ncccc3o2)ccc1Cl` was run?
The inhibition was inconclusive: 20%.

For `CCOc1ccc(S(=O)(=O)Nc2ccc(I)cc2)cc1`, which inhibition is on record?
The inhibition was “inactive”.

How did the inhibition turn out when `CC(=O)N1CCC[C@H]1C(=O)N(Cc1ccco1)Cc1cccs1` was run?
Its inhibition is “inactive”.

For `COc1ccc(N2CC(NC(=O)c3ccc(Br)o3)CC2=O)cc1` (stereo not drawn), which inhibition is on record?
The inhibition was active: 31%.

Which inhibition does the source give for `CCc1cc(-n2ccnc2-c2cccnc2)ccc1NC(C)=O` here?
Its inhibition is inconclusive: 15%.

`COc1cccc(-c2ncnn2-c2cccc(Cl)c2C)c1` was tested. Which inhibition did it give?
Its inhibition is inconclusive: 15%.

`CN1CCCN(S(=O)(=O)c2sc3c(c2C(=O)O)CCNC3)CC1` was tested. Which inhibition did it give?
The inhibition was inconclusive: 11%.

Which inhibition does the source give for `N[C@@H]1CC[C@@H](NS(=O)(=O)c2c(Cl)cccc2Cl)C1` here?
The inhibition was inconclusive: 10%.

For `COc1cc2c(cc1OC)C(C(=O)NC1CCCCC1)C(c1ccccc1F)N(C)C2=O` (stereo not drawn), which inhibition is on record?
The inhibition was “inactive”.

For `COC(=O)c1sccc1NC(=O)c1ccc2c(Cl)c3c(nc2c1)CCCC3`, which inhibition is on record?
Its inhibition is “inactive”.

With `COc1ccc2[nH]cc(C(=O)N3CCC4(CCCO4)CC3)c(=O)c2c1` as the compound, how does the inhibition read?
Its inhibition is inconclusive: 12%.

How did the inhibition turn out when `CN1CCC(N2CC[C@H](c3nnc(-c4ccncc4)o3)C2)CC1` was run?
Its inhibition is “inactive”.

Which inhibition does the source give for `CCc1cn[nH]c1C1CCN(C(=O)c2cc(C)nc3c2cnn3C(C)C)CC1` here?
Its inhibition is “inactive”.

Which inhibition does the source give for `CCc1ccc(C2CC(=O)N3CN(c4ccc(OC)cc4)CSC3=C2C#N)cc1` (stereo not drawn) here?
The inhibition was inconclusive: 26%.

Which inhibition does the source give for `COC(Cn1ccnc1-c1ccc2c(c1)OCCO2)c1cccs1` (stereo not drawn) here?
The inhibition was inconclusive: 12%.

`CCc1ccc(CN2CC[C@@H](c3ccc4c(c3)OCO4)[C@H](O)C2)nc1` was tested. Which inhibition did it give?
Its inhibition is “inactive”.

Which inhibition does the source give for `c1cnn(CC2CN(Cc3cc4n(n3)CCCNC4)CCCO2)c1` (stereo not drawn) here?
The inhibition was “inactive”.

For `O=C(O)CN1C(=O)C2CCCCN2C(=O)c2ccccc21` (stereo not drawn), which inhibition is on record?
Its inhibition is inconclusive: 11%.

For `CN(C)CCCN(C)C1CCCN(C(=O)c2cc3sccc3[nH]2)C1` (stereo not drawn), which inhibition is on record?
The inhibition was inconclusive: 20%.

How did the inhibition turn out when `O[C@]12CCCC[C@H]1CN(Cc1ccc(-c3ccn[nH]3)o1)CC2` was run?
The inhibition was inconclusive: 18%.

For `CC(=O)c1ccc(N2CCN(Cc3coc4c(Cl)cc(Cl)cc4c3=O)CC2)cc1`, which inhibition is on record?
Its inhibition is inconclusive: 18%.

`CC(=O)N(C1=C(NC2CCCCC2)C(=O)c2ccccc2C1=O)c1ccc(F)c(F)c1` was tested. Which inhibition did it give?
The inhibition was active: 45%.

`COc1ccc(-c2noc(CN3CCCN(c4ncccn4)CC3)n2)c(OC)c1OC` was tested. Which inhibition did it give?
Its inhibition is inconclusive: 12%.

How did the inhibition turn out when `COc1ccccc1Cc1nc(-c2nonc2N)no1` was run?
Its inhibition is “inactive”.

How did the inhibition turn out when `Cc1ccc(C(=O)NCCN(C)C)c(Cl)c1` was run?
The inhibition was “inactive”.

How did the inhibition turn out when `CCOC(=O)c1c(CN2CCC(C)CC2)n(C)c2cc(Br)c(OC)cc12` was run?
Its inhibition is inconclusive: 12%.

With `O=S(=O)(c1ccc(Br)cc1)n1cccn1` as the compound, how does the inhibition read?
The inhibition was inconclusive: 15%.

For `O=C(NCc1cccnc1)c1ccc2nc3cc(Cl)ccc3c(=O)n2c1`, which inhibition is on record?
Its inhibition is “inactive”.

For `CC1=C2C[C@@]3(C)C(CCC[C@@H]3C)C(O)C2(O)OC1=O` (stereo partly drawn), which inhibition is on record?
Its inhibition is inconclusive: 14%.

For `COc1ccc(I)cc1S(=O)(=O)NCCN1CCOCC1`, which inhibition is on record?
The inhibition was “inactive”.

Which inhibition does the source give for `COc1ccccc1N1CCN(C(=O)c2ccc(Cl)cc2[N+](=O)[O-])CC1` here?
Its inhibition is inconclusive: 27%.

For `CC1=C(C#N)C(=O)NC(=O)/C1=C\c1ccc(-c2cc([N+](=O)[O-])ccc2Cl)o1`, which inhibition is on record?
Its inhibition is inconclusive: 21%.

Which inhibition does the source give for `CCN1C(=O)N(Cc2cccc(OC)c2)C(=O)C12CCN(Cc1ccc(-c3ccco3)cc1)CC2` here?
Its inhibition is inconclusive: 26%.

Which inhibition does the source give for `Cc1cccn2c(=O)c3cc(C(=O)N4CCCCCC4)n(C)c3nc12` here?
The inhibition was “inactive”.

Which inhibition does the source give for `c1ccc2sc([C@H]3CCNC3)nc2c1` here?
Its inhibition is active: 32%.

With `Cc1ccc(C2=N/C(=C\c3ccccc3F)C(=O)O2)cc1[N+](=O)[O-]` as the compound, how does the inhibition read?
Its inhibition is inconclusive: 19%.

With `CCOc1ccc(C(=O)N2CCn3nc(C(=O)N4CCOCC4)cc3C2)o1` as the compound, how does the inhibition read?
Its inhibition is inconclusive: 12%.

`CCSC1=N/C(=C\c2ccc(C)s2)C(=O)S1` was tested. Which inhibition did it give?
The inhibition was active: 57%.

For `C[C@@H]1O[C@@H](Oc2cc(O)c3c(=O)c(O[C@@H]4O[C@@H](CO)[C@H](O[C@@H]5O[C@H](CO)[C@@H](O)[C@H](O)[C@H]5O)[C@H]4O)c(-c4ccc(O)cc4)oc3c2)[C@H](O)[C@H](O)[C@H]1O`, which inhibition is on record?
The inhibition was inconclusive: 11%.

With `CC1=C(C(=O)OC2CCCCC2)C(c2ccc(Cl)cc2Cl)n2ncnc2N1` (stereo not drawn) as the compound, how does the inhibition read?
The inhibition was “inactive”.

For `CN1C[C@@H](NC(=O)CC(C)(C)C)C[C@H]1c1nc(-c2cnccn2)no1`, which inhibition is on record?
Its inhibition is active: 34%.

`CC[C@H]1CN(C(=O)Nc2ccccc2)CC[C@H]1CC(=O)Nc1ccccc1` was tested. Which inhibition did it give?
The inhibition was inconclusive: 21%.
